This note sets out measurements from US6982283B2, “Method for treating drug-induced constipation” (Sucampo AG, priority 2001, dated 2006).

For this assay, the system named is Male ICR mice. Kind of assay: Antagonism to morphine-induced constipation: graphite marker in the caecum. The class given is in vivo.

With `CN1CC[C@]23c4c5ccc(O)c4O[C@H]2[C@@H](O)C=C[C@H]3[C@H]1C5.Cl` [Morphine, Morphine hydrochloride], the “Ratio of animals with positive scores” value turned out to be 20% (morphine 5 mg/kg i.p. + vehicle (0.5% tragacanth solution), Example 2, Table 2); 30% (morphine 5 mg/kg i.p. + vehicle (physiological saline), Example 2, Table 3); 20% (morphine 5 mg/kg i.p. + vehicle (saline, 0.01% polysorbate 80, 0.5% ethanol) orally, Example 1, Table 1, hydrochloride); 20% (morphine 5 mg/kg i.p. + vehicle (saline, 0.01% polysorbate 80, 0.5% ethanol) orally, Example 1, Table 1, listed as morphine, hydrochloride).
